Measured values as given in publication PMC9663503, “Independently evolved viral effectors convergently suppress DELLA protein SLR1-mediated broad-spectrum antiviral immunity in rice” (Nature Communications, 2022).
These are yes or no findings as the source states them, for the method shown. Binding seen in cells or lysates may run through a third protein. Some entries that bind do so weakly or less than the wild type. Sequences can lack the tags named with a protein.

Chains of the proteins cited; added tags and fusions are not shown.
UniProt Q336P5: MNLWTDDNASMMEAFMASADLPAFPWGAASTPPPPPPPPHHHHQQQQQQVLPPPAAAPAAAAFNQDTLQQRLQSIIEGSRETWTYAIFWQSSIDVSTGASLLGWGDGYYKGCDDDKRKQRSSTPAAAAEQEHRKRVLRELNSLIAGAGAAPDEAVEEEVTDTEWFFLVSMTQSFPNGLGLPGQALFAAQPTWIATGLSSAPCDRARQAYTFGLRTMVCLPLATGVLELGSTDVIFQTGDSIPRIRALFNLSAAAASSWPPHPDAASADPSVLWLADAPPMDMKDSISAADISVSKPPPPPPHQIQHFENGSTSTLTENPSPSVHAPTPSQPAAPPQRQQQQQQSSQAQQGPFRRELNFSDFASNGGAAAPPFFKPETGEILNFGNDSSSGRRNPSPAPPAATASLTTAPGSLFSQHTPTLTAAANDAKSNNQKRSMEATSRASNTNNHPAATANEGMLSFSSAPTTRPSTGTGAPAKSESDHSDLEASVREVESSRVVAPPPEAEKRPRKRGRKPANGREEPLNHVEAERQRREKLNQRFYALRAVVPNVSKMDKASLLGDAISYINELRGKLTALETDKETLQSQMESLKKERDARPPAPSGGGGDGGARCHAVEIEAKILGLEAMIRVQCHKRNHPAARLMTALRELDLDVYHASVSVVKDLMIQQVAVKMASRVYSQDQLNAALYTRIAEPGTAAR

Columns and labels:
[1] = target: T1, SLR1 (expressed in N. benthamiana; tag not stated) (rice (Oryza sativa)) (UniProt Q7G7J6); assay: co-IP; N. benthamiana leaves co-expressing the tagged proteins, harvested 48 hpi; IP buffer 25 mM Tris-HCl pH 7.4, 150 mM NaCl, 1% NP-40; Flag-trap beads 2 h at 4 °C; immunoblot
T1 sequence: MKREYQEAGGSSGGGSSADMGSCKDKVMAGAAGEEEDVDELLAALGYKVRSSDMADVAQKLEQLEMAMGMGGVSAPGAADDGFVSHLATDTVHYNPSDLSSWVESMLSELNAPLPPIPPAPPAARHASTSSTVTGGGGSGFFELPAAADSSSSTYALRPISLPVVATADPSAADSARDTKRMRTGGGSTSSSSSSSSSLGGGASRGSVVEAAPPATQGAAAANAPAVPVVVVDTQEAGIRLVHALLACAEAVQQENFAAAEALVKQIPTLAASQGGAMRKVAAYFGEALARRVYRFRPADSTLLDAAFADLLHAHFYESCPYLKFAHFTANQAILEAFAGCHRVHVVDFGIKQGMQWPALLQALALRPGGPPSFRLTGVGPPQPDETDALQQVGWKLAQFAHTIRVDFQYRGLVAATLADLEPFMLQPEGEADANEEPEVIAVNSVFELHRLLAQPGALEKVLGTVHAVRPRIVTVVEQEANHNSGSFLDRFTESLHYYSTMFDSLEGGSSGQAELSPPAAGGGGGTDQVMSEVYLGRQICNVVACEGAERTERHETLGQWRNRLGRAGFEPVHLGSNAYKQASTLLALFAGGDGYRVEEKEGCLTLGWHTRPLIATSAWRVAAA

[2] = target: T2, OsGID1-flag (rice (Oryza sativa)) (UniProt Q6L545); assay: co-IP; competitive co-IP in N. benthamiana leaves; a third protein (SP8, P2 or SLR1) co-infiltrated at OD600 0.5 or 1.0; 50 µM MG132 at 24 hpi (Fig. 3e, f, 6a-d); Flag-tag or HA-tag paramagnetic beads
T2 sequence: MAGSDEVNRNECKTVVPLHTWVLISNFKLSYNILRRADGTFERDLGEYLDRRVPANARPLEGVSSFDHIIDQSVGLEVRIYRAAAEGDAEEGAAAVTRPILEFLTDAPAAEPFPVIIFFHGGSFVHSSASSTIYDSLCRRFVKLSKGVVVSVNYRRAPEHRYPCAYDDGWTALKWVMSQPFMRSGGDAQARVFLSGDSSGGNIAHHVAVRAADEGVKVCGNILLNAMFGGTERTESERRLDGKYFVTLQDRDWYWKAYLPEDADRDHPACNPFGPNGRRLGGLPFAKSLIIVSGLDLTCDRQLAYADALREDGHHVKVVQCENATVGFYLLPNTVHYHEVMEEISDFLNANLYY

[3] = target: T3, SLR1-cYFP (rice (Oryza sativa)) (UniProt Q7G7J6); assay: split reporter; competitive BiFC in N. benthamiana leaves; components mixed in equal volumes, 50 µM MG132; with or without a third protein
T3 sequence: T1 sequence

OsMYC2 (co-IP construct; tag not stated) (from UniProt Q336P5 1-699)
binding [1]: binds

B1: SLR1-GFP (protein, UniProt Q7G7J6 1-625)
chain: T1 sequence
binding [2]: binds

B2: SLR1-myc (protein, UniProt Q7G7J6 1-625)
chain: T1 sequence
binding [2]: binds

B3: MBP-His-OsGID1 (receptor)
chain: T2 sequence
notes: OsGID1, the rice gibberellin receptor GIBBERELLIN … DWARF1; also called PET32a-MBP-His-OsGID1; source: E. coli Rosetta (DE3), purified (Ni-NTA His-trap column)
binding [3]: binds
